Laboratory results: patent US20100209931A1, “Compositions for Identifying Novel Compositions for the Treatment of Disease and Methods of Using Same” (priority 2009, published 2010)
For at least one compound, name, drawing or mass did not settle the structure.

What was measured:
Slt2 = conditions: cited from earlier work
cells lacking IRA2 = assay: growth of cells lacking IRA2, 96-well plates; assay type: cell-based, Saccharomyces cerevisiae; conditions: with 25 PD98059 on ira2Δ cells; 24 hours
diploid cells = conditions: in response to nitrogen starvation; cited from earlier work

CO[C@H]1C[C@@H]2CC[C@@H](C)[C@@](O)(O2)C(=O)C(=O)N2CCCC[C@H]2C(=O)O[C@H]([C@H](C)C[C@@H]2CC[C@@H](O)[C@H](OC)C2)CC(=O)[C@H](C)/C=C(\C)[C@@H](O)[C@@H](OC)C(=O)[C@H](C)C[C@H](C)/C=C/C=C/C=C/1C [rapamycin]
activation of Slt2 (Slt2): activate | effect of rapamycin on growth inhibition by PD98059 (cells lacking IRA2): enhances the effect | pseudohyphal transition of diploid cells (diploid cells): block
